Data as given in PubChem BioAssay AID1259405 (NCATS, 2018).
Shown is a random part of about 50,000 reagents tested. About 4,000 of all reagents (8%) count as active. 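Mouse siRNA library applied to hamster cells; one well for each siRNA.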 Unmarked entries are inactive. No sequences are given here.

- Assay: 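Silenced genes that increase secreted GFP made by CHO cells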 (primary screen)
- Cells: Chinese hamster CHO-K1 ovary cells with stable secreted eGFP expression
- Knock-down reagent: single siRNA against mouse genes, 0.8 pmol siRNA per well (2 µl of 400 nM stock)
- Duration: 3 days
- Measured: 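Per-well intracellular GFP measured by laser scanning cytometry, plus viability from ATP luminescence, each relative to plate median of non-targeting control wells, in %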
- Direction: GFP, % of control: higher = more GFP per well, higher productivity; viability (ATP), % of control: higher = more viable cells (more ATP)
- Call rule: 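Called active when intracellular GFP, relative to negative control, is at or above 120%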

Or1j12 [SID363554164] gave GFP, % of control 68.5; viability (ATP), % of control 65.8. For Or1j12 [SID363567611], the entry reads GFP, % of control 108; viability (ATP), % of control 49.2. Against Or1j12 [SID363584968], the values are GFP, % of control 42.5; viability (ATP), % of control 66.6. Knock-down of Glrx3 [SID363573031] came out at: GFP, % of control 86.3; viability (ATP), % of control 77.2. After knock-down of Glrx3 [SID363577607], the record shows GFP, % of control 75.4; viability (ATP), % of control 65.6. After knock-down of Glrx3 [SID363581127] the results were GFP, % of control 66.2; viability (ATP), % of control 61.6.

For Sec63 [SID363582330], the entry reads GFP, % of control 132 (active); viability (ATP), % of control 126. After knock-down of Sec63 [SID363584090] the results were GFP, % of control 116; viability (ATP), % of control 99.7. Silencing of Nos2 [SID363582373] came out at: GFP, % of control 75; viability (ATP), % of control 75.5. For Nos2 [SID363584133] the deposit lists GFP, % of control 87.7; viability (ATP), % of control 66.9. Against Selenos [SID363539875] the deposit lists GFP, % of control 63.2; viability (ATP), % of control 57. With knock-down of Selenos [SID363561176], the record shows GFP, % of control 116; viability (ATP), % of control 68.8.

Selenos [SID363564212] showed GFP, % of control 84; viability (ATP), % of control 77.6. With knock-down of Smc1b [SID363568991] the results were GFP, % of control 105; viability (ATP), % of control 111. Silencing of Smc1b [SID363583423] came out at: GFP, % of control 77.9; viability (ATP), % of control 84.4. For Rax [SID363569090], the values are GFP, % of control 98; viability (ATP), % of control 89.1. Rax [SID363583522] scored GFP, % of control 92.4; viability (ATP), % of control 79.8. Msh4 [SID363569413] showed GFP, % of control 63.5; viability (ATP), % of control 83.8.

Msh4 [SID363577157] gave GFP, % of control 87.1; viability (ATP), % of control 59.3. Knock-down of Msh4 [SID363578565] came out at: GFP, % of control 67.4; viability (ATP), % of control 47.4. Tmem138 [SID363544015] scored GFP, % of control 56.4; viability (ATP), % of control 47.9. Tmem138 [SID363551751] gave GFP, % of control 97.9; viability (ATP), % of control 74.5. After knock-down of Tmem138 [SID363559356], the record shows GFP, % of control 85.3; viability (ATP), % of control 73.3. Against Caly [SID363581670] the deposit lists GFP, % of control 78.3; viability (ATP), % of control 59.

Caly [SID363589164] showed GFP, % of control 96.3; viability (ATP), % of control 95.6. Knock-down of Pif1 [SID363546727] gave: GFP, % of control 89.7; viability (ATP), % of control 70.5. Knock-down of Pif1 [SID363548483] gave: GFP, % of control 79.5; viability (ATP), % of control 102. For Pif1 [SID363560661], the entry reads GFP, % of control 111; viability (ATP), % of control 78.1.

Copied from the list.
Result for Pif1 [SID363546727] in “viability (ATP), % of control”: 70.5
Tmem138 [SID363551751], viability (ATP), % of control → 74.5
Result of Or1j12 [SID363584968] under “viability (ATP), % of control”: 66.6
